Laboratory results as given in patent EP0079489A1, “Methotrexate-labeled iodothyronine conjugates and method, reagent means and test device for the determination of iodothyronine in or iodothyronine uptake of a liquid sample” (MILES LABORATORIES, INC., priority 1981, dated 1983).
At least one structure is not confirmed: it was looked up by name or label, or the drawing left a doubt.

How the values were obtained:
Antibody to Thyroxine = test: Competitive binding assay for thyroxine, dihydrofolate reductase activity read-out (Example 1E); conditions: 30 µl antibody 1:4 dil, 100 µl of 0.16 µM Methotrexate-Aminobutyl-Thyroxine, without thyroxine 0.645
Method: The standard assay consisted of 0.10 mM dihydrofolate (DHF), 0.10 mM NADPH, 0.001 unit/bovine liver dihydrofolate reductase (Sigma Chemical Co., St. Louis, MO) and 0.1 M sodium phosphate (pH 6.0) in a final volume of 2.0 ml. The reaction mixture without dihydrofolate was incubated at 37°C for 5 minutes, then the reaction was initiated by adding dihydrofolate, and an initial absorbance at 340 nm was recorded with a Gilford 250 spectrophotometer (Gilford Instrument Laboratories, Oberlin, OH). The reaction was allowed to proceed for 20 minutes at 37°C and then a final reading was recorded. The enzyme activity was expressed as the change in absorbance (AA) at 340 nanometers (nm) that occurred during the 20 minute (min) reaction.
The standard concentrations of NADPH, buffer, antibody to thyroxine and various concentrations of thyroxine were incubated at room remperature for a minimum of 30 seconds. Then 100 µl of […] methotrexate-aminobutylthyroxine was added and the mixture was incubated at room temperature for 2 minutes. Following the second incubation, dihydrofolate reductase was added and the mixture was incubated an additional 5 minutes at 37°C. The reaction was initiated and monitored in the usual manner.

thyroxine antibody = test: Competitive binding assay for thyroxine in serum standards, thiazoyl blue colorimetric read-out (Example 2C); conditions: serum standard, 8.7 µl thyroxine antibody, 20 minutes at 37°C, at 0 µg/dl 0.603

NC(Cc1cc(I)c(Oc2cc(I)c(O)c(I)c2)c(I)c1)C(=O)O (centres unmarked) [Thyroxine, 3,5,3'5'-tetraiodothyronine]
ΔA340/ 20 Min (Antibody to Thyroxine; 20 µl thyroxine 1 x 10^-7M): 0.637
ΔA340/ 20 Min (Antibody to Thyroxine; 40 µl thyroxine 1 x 10^-7M): 0.610
ΔA340/ 20 Min (Antibody to Thyroxine; 80 µl thyroxine 1 x 10^-7M): 0.595
ΔA340/ 20 Min (Antibody to Thyroxine; 120 µl thyroxine 1 x 10^-7M): 0.595
ΔA340/ 20 Min (Antibody to Thyroxine; 160 µl thyroxine 1 x 10^-7M): 0.585
ΔA340/ 20 Min (Antibody to Thyroxine; 200 µl thyroxine 1 x 10^-7M): 0.584
Absorbance (560 nm) (thyroxine antibody; thyroxine 1.0 µg/dl): 0.585
Absorbance (560 nm) (thyroxine antibody; thyroxine 2.5 µg/dl): 0.595
Absorbance (560 nm) (thyroxine antibody; thyroxine 5.0 µg/dl): 0.582
Absorbance (560 nm) (thyroxine antibody; thyroxine 15.2 µg/dl): 0.545
Absorbance (560 nm) (thyroxine antibody; thyroxine 30.3 µg/dl): 0.527
